Source: the supplement of paper PMC8612539
Values after ≈ are worked out from the molar mass of the structure shown. This continues a long series; more values of the same kind are listed elsewhere.

Test system: Pasteurella multocida
Assay: minimum inhibitory concentration (MIC)
Method: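 Broth microdilution MIC (Sensititre BOPO7F bovine plate, CLSI methods) of 19 antimicrobials against field isolates of P. multocida, M. haemolytica, H. somni (deep nasopharyngeal swabs) and E. coli, Enterococcus spp. (rectal swabs) from weaned dairy heifers. Incubation 16-24 h at 35 C. MIC is the lowest concentration preventing visible growth. Values with <= or > lie at the tested range limits. Trimethoprim-sulfamethoxazole is given as the trimethoprim component of a 1:19 mixture.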

CCN1CCN(c2cc3c(cc2F)c(=O)c(C(=O)O)cn3C2CC2)CC1 [Enrofloxacin]
Conditions | minimum inhibitory concentration [mg/L]
isolate (source animal id): 30 | 1 (≈ 2.78 µM)
isolate (source animal id): 34 | 2 (≈ 5.56 µM)
isolate (source animal id): 36 | 2 (≈ 5.56 µM)
isolate (source animal id): 37 | 2 (≈ 5.56 µM)
isolate (source animal id): 46 | ≤ 0.12
isolate (source animal id): 48 | 2 (≈ 5.56 µM)
isolate (source animal id): 49 | 2 (≈ 5.56 µM)
isolate (source animal id): 54 | 1 (≈ 2.78 µM)
isolate (source animal id): 55 | 1 (≈ 2.78 µM)
isolate (source animal id): 58 | 2 (≈ 5.56 µM)
isolate (source animal id): 60 | 1 (≈ 2.78 µM)
isolate (source animal id): 61 | > 2
isolate (source animal id): 63 | 2 (≈ 5.56 µM)
isolate (source animal id): 64 | 2 (≈ 5.56 µM)
isolate (source animal id): 65 | > 2
isolate (source animal id): 66 | 2 (≈ 5.56 µM)
isolate (source animal id): 67 | 2 (≈ 5.56 µM)
isolate (source animal id): 69 | 2 (≈ 5.56 µM)
isolate (source animal id): 73 | 1 (≈ 2.78 µM)
isolate (source animal id): 75 | 2 (≈ 5.56 µM)
isolate (source animal id): 76 | 1 (≈ 2.78 µM)
isolate (source animal id): 77 | 0.5 (≈ 1.39 µM)
isolate (source animal id): 78 | 1 (≈ 2.78 µM)
isolate (source animal id): 80 | 1 (≈ 2.78 µM)
isolate (source animal id): 82 | 1 (≈ 2.78 µM)
isolate (source animal id): 83 | 1 (≈ 2.78 µM)
isolate (source animal id): 88 | ≤ 0.12
isolate (source animal id): 92 | 0.5 (≈ 1.39 µM)
isolate (source animal id): 94 | 2 (≈ 5.56 µM)
isolate (source animal id): 318 | ≤ 0.12
isolate (source animal id): 319 | ≤ 0.12
isolate (source animal id): 320 | 1 (≈ 2.78 µM)
isolate (source animal id): 321 | 1 (≈ 2.78 µM)
isolate (source animal id): 322 | 1 (≈ 2.78 µM)
isolate (source animal id): 324 | 1 (≈ 2.78 µM)
isolate (source animal id): 325 | 1 (≈ 2.78 µM)
isolate (source animal id): 328 | 1 (≈ 2.78 µM)
isolate (source animal id): 330 | 1 (≈ 2.78 µM)
isolate (source animal id): 331 | ≤ 0.12
isolate (source animal id): 333 | ≤ 0.12
isolate (source animal id): 336 | 1 (≈ 2.78 µM)
isolate (source animal id): 337 | 1 (≈ 2.78 µM)
isolate (source animal id): 339 | 1 (≈ 2.78 µM)
isolate (source animal id): 340 | ≤ 0.12
isolate (source animal id): 341 | ≤ 0.12

CS(=O)(=O)c1ccc([C@@H](O)[C@@H](CF)NC(=O)C(Cl)Cl)cc1 [Florfenicol]
Conditions | minimum inhibitory concentration [mg/L]
isolate (source animal id): 30 | > 8
isolate (source animal id): 34 | 8 (≈ 22.3 µM)
isolate (source animal id): 36 | 8 (≈ 22.3 µM)
isolate (source animal id): 37 | 8 (≈ 22.3 µM)
isolate (source animal id): 46 | 0.5 (≈ 1.4 µM)
isolate (source animal id): 48 | > 8
isolate (source animal id): 49 | 8 (≈ 22.3 µM)
isolate (source animal id): 54 | 8 (≈ 22.3 µM)
isolate (source animal id): 55 | 8 (≈ 22.3 µM)
isolate (source animal id): 58 | 4 (≈ 11.2 µM)
isolate (source animal id): 60 | > 8
isolate (source animal id): 61 | > 8
isolate (source animal id): 63 | 8 (≈ 22.3 µM)
isolate (source animal id): 64 | 4 (≈ 11.2 µM)
isolate (source animal id): 65 | > 8
isolate (source animal id): 66 | 8 (≈ 22.3 µM)
isolate (source animal id): 67 | 8 (≈ 22.3 µM)
isolate (source animal id): 69 | > 8
isolate (source animal id): 73 | 8 (≈ 22.3 µM)
isolate (source animal id): 75 | 8 (≈ 22.3 µM)
isolate (source animal id): 76 | 8 (≈ 22.3 µM)
isolate (source animal id): 77 | 0.5 (≈ 1.4 µM)
isolate (source animal id): 78 | 8 (≈ 22.3 µM)
isolate (source animal id): 80 | 8 (≈ 22.3 µM)
isolate (source animal id): 82 | 8 (≈ 22.3 µM)
isolate (source animal id): 83 | 0.5 (≈ 1.4 µM)
isolate (source animal id): 88 | 4 (≈ 11.2 µM)
isolate (source animal id): 92 | 0.5 (≈ 1.4 µM)
isolate (source animal id): 94 | 4 (≈ 11.2 µM)
isolate (source animal id): 318 | 0.5 (≈ 1.4 µM)
isolate (source animal id): 319 | 0.5 (≈ 1.4 µM)
isolate (source animal id): 320 | 8 (≈ 22.3 µM)
isolate (source animal id): 321 | > 8
isolate (source animal id): 322 | 8 (≈ 22.3 µM)
isolate (source animal id): 324 | 8 (≈ 22.3 µM)
isolate (source animal id): 325 | 8 (≈ 22.3 µM)
isolate (source animal id): 328 | > 8
isolate (source animal id): 330 | 8 (≈ 22.3 µM)
isolate (source animal id): 331 | ≤ 0.25
isolate (source animal id): 333 | 1 (≈ 2.79 µM)
isolate (source animal id): 336 | 0.5 (≈ 1.4 µM)
isolate (source animal id): 337 | > 8
isolate (source animal id): 339 | 8 (≈ 22.3 µM)
isolate (source animal id): 340 | > 8
isolate (source animal id): 341 | 0.5 (≈ 1.4 µM)

CCCN1C[C@H](C)[C@@H](O)[C@](C)(O)[C@@H](CC)OC(=O)[C@H](C)[C@@H](O[C@H]2C[C@@](C)(OC)[C@@H](O)[C@H](C)O2)[C@H](C)[C@@H](O[C@@H]2O[C@H](C)C[C@H](N(C)C)[C@H]2O)[C@](C)(O)C[C@H]1C [Gamithromycin]
Conditions | minimum inhibitory concentration [mg/L]
isolate (source animal id): 30 | 8 (≈ 10.3 µM)
isolate (source animal id): 34 | 8 (≈ 10.3 µM)
isolate (source animal id): 36 | 4 (≈ 5.15 µM)
isolate (source animal id): 37 | 4 (≈ 5.15 µM)
isolate (source animal id): 46 | ≤ 1
isolate (source animal id): 48 | 8 (≈ 10.3 µM)
isolate (source animal id): 49 | 8 (≈ 10.3 µM)
isolate (source animal id): 54 | 8 (≈ 10.3 µM)
isolate (source animal id): 55 | 8 (≈ 10.3 µM)
isolate (source animal id): 58 | ≤ 1
isolate (source animal id): 60 | 8 (≈ 10.3 µM)
isolate (source animal id): 61 | 8 (≈ 10.3 µM)
isolate (source animal id): 63 | 8 (≈ 10.3 µM)
isolate (source animal id): 64 | ≤ 1
isolate (source animal id): 65 | 8 (≈ 10.3 µM)
isolate (source animal id): 66 | > 8
isolate (source animal id): 67 | 8 (≈ 10.3 µM)
isolate (source animal id): 69 | > 8
isolate (source animal id): 73 | 8 (≈ 10.3 µM)
isolate (source animal id): 75 | 8 (≈ 10.3 µM)
isolate (source animal id): 76 | 8 (≈ 10.3 µM)
isolate (source animal id): 77 | > 8
isolate (source animal id): 78 | 8 (≈ 10.3 µM)
isolate (source animal id): 80 | > 8
isolate (source animal id): 82 | > 8
isolate (source animal id): 83 | > 8
isolate (source animal id): 88 | > 8
isolate (source animal id): 92 | > 8
isolate (source animal id): 94 | 8 (≈ 10.3 µM)
isolate (source animal id): 318 | 8 (≈ 10.3 µM)
isolate (source animal id): 319 | 8 (≈ 10.3 µM)
isolate (source animal id): 320 | > 8
isolate (source animal id): 321 | > 8
isolate (source animal id): 322 | 8 (≈ 10.3 µM)
isolate (source animal id): 324 | > 8
isolate (source animal id): 325 | 8 (≈ 10.3 µM)
isolate (source animal id): 328 | 8 (≈ 10.3 µM)
isolate (source animal id): 330 | 8 (≈ 10.3 µM)
isolate (source animal id): 331 | ≤ 1
isolate (source animal id): 333 | 8 (≈ 10.3 µM)
isolate (source animal id): 336 | > 8
isolate (source animal id): 337 | 8 (≈ 10.3 µM)
isolate (source animal id): 339 | > 8
isolate (source animal id): 340 | 8 (≈ 10.3 µM)
isolate (source animal id): 341 | 8 (≈ 10.3 µM)

CNC(C)C1CCC(N)C(OC2C(N)CC(N)C(OC3OCC(C)(O)C(NC)C3O)C2O)O1 (stereo not given) [Gentamicin]
Conditions | minimum inhibitory concentration [mg/L]
isolate (source animal id): 30 | 4 (≈ 8.38 µM)
isolate (source animal id): 34 | 4 (≈ 8.38 µM)
isolate (source animal id): 36 | 4 (≈ 8.38 µM)
isolate (source animal id): 37 | 4 (≈ 8.38 µM)
isolate (source animal id): 46 | 8 (≈ 16.8 µM)
isolate (source animal id): 48 | 8 (≈ 16.8 µM)
isolate (source animal id): 49 | 4 (≈ 8.38 µM)
isolate (source animal id): 54 | 2 (≈ 4.19 µM)
isolate (source animal id): 55 | 2 (≈ 4.19 µM)
isolate (source animal id): 58 | 4 (≈ 8.38 µM)
isolate (source animal id): 60 | 4 (≈ 8.38 µM)
isolate (source animal id): 61 | 2 (≈ 4.19 µM)
isolate (source animal id): 63 | 4 (≈ 8.38 µM)
isolate (source animal id): 64 | 4 (≈ 8.38 µM)
isolate (source animal id): 65 | 2 (≈ 4.19 µM)
isolate (source animal id): 66 | 4 (≈ 8.38 µM)
isolate (source animal id): 67 | 2 (≈ 4.19 µM)
isolate (source animal id): 69 | 2 (≈ 4.19 µM)
isolate (source animal id): 73 | 2 (≈ 4.19 µM)
isolate (source animal id): 75 | 2 (≈ 4.19 µM)
isolate (source animal id): 76 | 2 (≈ 4.19 µM)
isolate (source animal id): 77 | 2 (≈ 4.19 µM)
isolate (source animal id): 78 | 2 (≈ 4.19 µM)
isolate (source animal id): 80 | 4 (≈ 8.38 µM)
isolate (source animal id): 82 | 4 (≈ 8.38 µM)
isolate (source animal id): 83 | 4 (≈ 8.38 µM)
isolate (source animal id): 88 | 8 (≈ 16.8 µM)
isolate (source animal id): 92 | 4 (≈ 8.38 µM)
isolate (source animal id): 94 | 4 (≈ 8.38 µM)
isolate (source animal id): 318 | 4 (≈ 8.38 µM)
isolate (source animal id): 319 | 4 (≈ 8.38 µM)
isolate (source animal id): 320 | 4 (≈ 8.38 µM)
isolate (source animal id): 321 | 4 (≈ 8.38 µM)
isolate (source animal id): 322 | 4 (≈ 8.38 µM)
isolate (source animal id): 324 | 4 (≈ 8.38 µM)
isolate (source animal id): 325 | 4 (≈ 8.38 µM)
isolate (source animal id): 328 | 2 (≈ 4.19 µM)
isolate (source animal id): 330 | 2 (≈ 4.19 µM)
isolate (source animal id): 331 | 4 (≈ 8.38 µM)
isolate (source animal id): 333 | 4 (≈ 8.38 µM)
isolate (source animal id): 336 | 2 (≈ 4.19 µM)
isolate (source animal id): 337 | 4 (≈ 8.38 µM)
isolate (source animal id): 339 | 4 (≈ 8.38 µM)
isolate (source animal id): 340 | 4 (≈ 8.38 µM)
isolate (source animal id): 341 | 4 (≈ 8.38 µM)

NC[C@@H]1O[C@H](O[C@H]2[C@@H](O)[C@H](O[C@@H]3[C@@H](O)[C@H](N)C[C@H](N)[C@H]3O[C@H]3O[C@H](CN)[C@@H](O)[C@H](O)[C@H]3N)O[C@@H]2CO)[C@H](N)[C@@H](O)[C@@H]1O [Neomycin]
Conditions | minimum inhibitory concentration [mg/L]
isolate (source animal id): 30 | > 32
isolate (source animal id): 34 | > 32
isolate (source animal id): 36 | > 32
isolate (source animal id): 37 | > 32
isolate (source animal id): 46 | > 32
isolate (source animal id): 48 | > 32
isolate (source animal id): 49 | > 32
isolate (source animal id): 54 | > 32
isolate (source animal id): 55 | > 32
isolate (source animal id): 58 | > 32
isolate (source animal id): 60 | > 32
isolate (source animal id): 61 | > 32
isolate (source animal id): 63 | > 32
isolate (source animal id): 64 | > 32
isolate (source animal id): 65 | > 32
isolate (source animal id): 66 | > 32
isolate (source animal id): 67 | > 32
isolate (source animal id): 69 | > 32
isolate (source animal id): 73 | > 32
isolate (source animal id): 75 | > 32
isolate (source animal id): 76 | > 32
isolate (source animal id): 77 | > 32
isolate (source animal id): 78 | > 32
isolate (source animal id): 80 | > 32
isolate (source animal id): 82 | > 32
isolate (source animal id): 83 | > 32
isolate (source animal id): 88 | > 32
isolate (source animal id): 92 | > 32
isolate (source animal id): 94 | > 32
isolate (source animal id): 318 | > 32
isolate (source animal id): 319 | > 32
isolate (source animal id): 320 | > 32
isolate (source animal id): 321 | > 32
isolate (source animal id): 322 | > 32
isolate (source animal id): 324 | > 32
isolate (source animal id): 325 | > 32
isolate (source animal id): 328 | > 32
isolate (source animal id): 330 | > 32
isolate (source animal id): 331 | 32 (≈ 52.1 µM)
isolate (source animal id): 333 | > 32
isolate (source animal id): 336 | > 32
isolate (source animal id): 337 | > 32
isolate (source animal id): 339 | > 32
isolate (source animal id): 340 | > 32
isolate (source animal id): 341 | > 32
